Experimental data from PMC7236048.
No constants are given. Whether binding was seen depends on the method and setting. Binding seen in cells or lysates may run through a third protein. Some results given as binding are weak or reduced against the parent protein; the word gives no strength.

Target: Cnx6 (UniProt O22827)
Assay: split reporter; BiFC with YFP N- and C-terminal fragments, Agrobacterium-mediated transient coexpression with p19 in N. benthamiana leaves; confocal microscopy after 48 h (2-3 days)

binding: binds
B1: Cnx6 (protein, UniProt O22827 1-198)
chain: MSAEEKNLIEILEEGHKVDVVKYIDYVSAPQAGAIATFSGTTRDMFEGKTVLELRYEAYVPMATRCLSSICTTARSTWDIHKIAVAHRLGPVPVGETSVLIAVSSVHRADGLDACKFLIDELKASVPIWKKEVYTNGEIWKENSEFMEKRLELAEKRDSIVKKTVVEEHRRRGCCGSKVRVEEDEEHKDITGDNKSSS
